# Measurements taken from the supplement of paper PMC8728848.
# The list shows a part of the results.
# B1: Protein L(B1-B4) (Finegoldia magna), Q51912 (protein)
# chain: KEETPETPETDSEEEVTIKANLIFANGSTQTAEFKGTFEKATSEAYAYADTLKKDNGEYTVDVADKGYTLNIKFAGKEKTPEEPKEEVTIKANLIYADGKTQTAEFKGTFEEATAEAYRYADALKKDNGEYTVDVADKGYTLNIKFAGKEKTPEEPKEEVTIKANLIYADGKTQTAEFKGTFEEATAEAYRYADLLAKENGKYTVDVADKGYTLNIKFAGKEKTPEEPKEEVTIKANLIYADGKTQTAEFKGTFAEATAEAYRYADLLAKENGKYTADLEDGGYTINIRFAG
# Assays:
# Experiment in all cases: glycan array binding signal (z-score within array); higher = stronger binding
# Conditions in all cases: glycan notation: IUPAC condensed, linker removed
# [1] = biological target: Fuc(a1-2)[GalNAc(a1-3)]Gal(b1-3)GlcNAc(b1-6)GalNAc
# In short: (§1)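 Columns mapping to the same glycan were averaged after glycan names were converted to IUPAC-condensed notation. The data come from 3228 arrays in the Consortium for Functional Glycomics database, limited to those with an available protein sequence. Binding is reported as a within-array Z-score averaged across arrays of one protein sequence and across linkers.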
# [2] = biological target: Fuc(a1-2)[GalNAc(a1-3)]Gal(b1-4)Glc
# In short: as §1
# [3] = biological target: Fuc(a1-2)[GalNAc(a1-3)]Gal(b1-4)GlcNAc
# In short: as §1
# [4] = biological target: Fuc(a1-2)[GalNAc(a1-3)]Gal(b1-4)GlcNAc(b1-2)Man
# In short: as §1
# [5] = biological target: Fuc(a1-2)[GalNAc(a1-3)]Gal(b1-4)GlcNAc(b1-2)Man(a1-3)[Fuc(a1-2)[GalNAc(a1-3)]Gal(b1-4)GlcNAc(b1-2)Man(a1-6)]Man(b1-4)GlcNAc(b1-4)GlcNAc
# In short: as §1
# [6] = biological target: Fuc(a1-2)[GalNAc(a1-3)]Gal(b1-4)GlcNAc(b1-2)Man(a1-3)[Fuc(a1-2)[GalNAc(a1-3)]Gal(b1-4)GlcNAc(b1-2)Man(a1-6)]Man(b1-4)GlcNAc(b1-4)[Fuc(a1-6)]GlcNAc
# In short: as §1
# [7] = biological target: Fuc(a1-2)[GalNAc(a1-3)]Gal(b1-4)GlcNAc(b1-3)Gal(b1-4)GlcNAc
# In short: as §1
# [8] = biological target: Fuc(a1-2)[GalNAc(a1-3)]Gal(b1-4)GlcNAc(b1-3)Gal(b1-4)GlcNAc(b1-3)Gal(b1-4)GlcNAc
# In short: as §1
# [9] = biological target: Fuc(a1-2)[GalNAc(a1-3)]Gal(b1-4)GlcNAc(b1-3)GalNAc
# In short: as §1
# [10] = biological target: Fuc(a1-2)[GalNAc(a1-3)]Gal(b1-4)GlcNAc(b1-3)[Fuc(a1-2)[GalNAc(a1-3)]Gal(b1-4)GlcNAc(b1-6)]GalNAc
# In short: as §1
# [11] = biological target: Fuc(a1-2)[GalNAc(a1-3)]Gal(b1-4)GlcNAc(b1-6)GalNAc
# In short: as §1
# [12] = biological target: Fuc(a1-2)[GalNAc(a1-3)]Gal(b1-4)[Fuc(a1-3)]GlcNAc
# In short: as §1
# [13] = biological target: Fuc(a1-2)[GalNAc(a1-3)]Gal(b1-4)[Fuc(a1-3)]GlcNAc(b1-3)GalNAc
# In short: as §1
# [14] = biological target: Fuc(a1-2)[GalNAc(a1-4)]Gal(b1-4)GlcNAc
# In short: as §1
# [15] = biological target: Fuc(a1-2)[GalNAc(b1-3)]Gal
# In short: as §1
# Fuc(a1-3)GlcNAc = biological target: Fuc(a1-3)GlcNAc
# In short: as §1
# [16] = biological target: Fuc(a1-3)[Gal(b1-4)]Glc6S
# In short: as §1
# [17] = biological target: Fuc(a1-3)[Gal(b1-4)]GlcNAc
# In short: as §1
# [18] = biological target: Fuc(a1-3)[Gal(b1-4)]GlcNAc(b1-2)Man
# In short: as §1
# [19] = biological target: Fuc(a1-3)[Gal(b1-4)]GlcNAc(b1-2)Man(a1-3)[Fuc(a1-3)[Gal(b1-4)]GlcNAc(b1-2)Man(a1-6)]Man(b1-4)GlcNAc(b1-4)GlcNAc
# In short: as §1
# [20] = biological target: Fuc(a1-3)[Gal(b1-4)]GlcNAc(b1-2)Man(a1-3)[Fuc(a1-3)[Gal(b1-4)]GlcNAc(b1-2)Man(a1-6)]Man(b1-4)GlcNAc(b1-4)[Fuc(a1-6)]GlcNAc
# In short: as §1
# [21] = biological target: Fuc(a1-3)[Gal(b1-4)]GlcNAc(b1-3)Gal(b1-3)[Fuc(a1-4)]GlcNAc
# In short: as §1
# [22] = biological target: Fuc(a1-3)[Gal(b1-4)]GlcNAc(b1-3)GalNAc
# In short: as §1
# [23] = biological target: Fuc(a1-3)[Gal(b1-4)]GlcNAc(b1-4)Gal(b1-4)[Fuc(a1-3)]GlcNAc
# In short: as §1
# [24] = biological target: Fuc(a1-3)[Gal(b1-4)]GlcNAc(b1-4)Gal(b1-4)[Fuc(a1-3)]GlcNAc(b1-4)Gal(b1-4)[Fuc(a1-3)]GlcNAc
# In short: as §1
# [25] = biological target: Fuc(a1-3)[Gal(b1-4)]GlcNAc(b1-6)GalNAc
# In short: as §1
# [26] = biological target: Fuc(a1-3)[Gal(b1-4)]GlcNAc(b1-6)[Gal(b1-3)GlcNAc(b1-3)]Gal(b1-4)Glc
# In short: as §1
# [27] = biological target: Fuc(a1-3)[Gal(b1-4)]GlcNAc6S
# In short: as §1
# [28] = biological target: Fuc(a1-3)[Gal3S(b1-4)]Glc
# In short: as §1
# [29] = biological target: Fuc(a1-3)[Gal3S(b1-4)]GlcNAc
# In short: as §1
# [30] = biological target: Fuc(a1-3)[Gal3S(b1-4)]GlcNAc6S
# In short: as §1
# [31] = biological target: Fuc(a1-3)[GalNAc(b1-4)]GlcNAc
# In short: as §1
# [32] = biological target: Fuc(a1-3)[GalNAc(b1-4)]GlcNAc6S
# In short: as §1
# Fuc(a1-4)GlcNAc = biological target: Fuc(a1-4)GlcNAc
# In short: as §1
# Fuc(b1-3)GlcNAc = biological target: Fuc(b1-3)GlcNAc
# In short: as §1
# Gal(a1-2)Gal = biological target: Gal(a1-2)Gal
# In short: as §1
# Gal(a1-3)Gal = biological target: Gal(a1-3)Gal
# In short: as §1
binder,measurement,setting,value
B1,glycan array binding signal (z-score),[1],-0.958
same,glycan array binding signal (z-score),[2],-0.87
same,glycan array binding signal (z-score),[3],-0.955
same,glycan array binding signal (z-score),[4],-0.543
same,glycan array binding signal (z-score),[5],-0.464
same,glycan array binding signal (z-score),[6],2.95
same,glycan array binding signal (z-score),[7],-0.916
same,glycan array binding signal (z-score),[8],1.73
same,glycan array binding signal (z-score),[9],-0.042
same,glycan array binding signal (z-score),[10],-0.243
same,glycan array binding signal (z-score),[11],-0.705
same,glycan array binding signal (z-score),[12],2.66
same,glycan array binding signal (z-score),[13],2.6
same,glycan array binding signal (z-score),[14],-0.856
same,glycan array binding signal (z-score),[15],-0.841
same,glycan array binding signal (z-score),Fuc(a1-3)GlcNAc,-0.6
same,glycan array binding signal (z-score),[16],2.06
same,glycan array binding signal (z-score),[17],-0.613
same,glycan array binding signal (z-score),[18],0.206
same,glycan array binding signal (z-score),[19],-0.06
same,glycan array binding signal (z-score),[20],1.35
same,glycan array binding signal (z-score),[21],0.708
same,glycan array binding signal (z-score),[22],1.01
same,glycan array binding signal (z-score),[23],1.59
same,glycan array binding signal (z-score),[24],0.587
same,glycan array binding signal (z-score),[25],1.68
same,glycan array binding signal (z-score),[26],0.06
same,glycan array binding signal (z-score),[27],1.6
same,glycan array binding signal (z-score),[28],1.95
same,glycan array binding signal (z-score),[29],-0.563
same,glycan array binding signal (z-score),[30],0.182
same,glycan array binding signal (z-score),[31],1.12
same,glycan array binding signal (z-score),[32],-0.65
same,glycan array binding signal (z-score),Fuc(a1-4)GlcNAc,-0.839
same,glycan array binding signal (z-score),Fuc(b1-3)GlcNAc,-0.378
same,glycan array binding signal (z-score),Gal(a1-2)Gal,-0.43
same,glycan array binding signal (z-score),Gal(a1-3)Gal,-0.589

# Some of the entries so far, with bars between the fields.
binder | measurement | setting | value
B1 | glycan array binding signal (z-score) | Fuc(a1-3)GlcNAc | -0.6
same | glycan array binding signal (z-score) | [16] | 2.06
same | glycan array binding signal (z-score) | [17] | -0.613
